Data source: PubChem BioAssay AID1224830 (NIAID, 2016)
Assay: 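Host factors that control LPS-induced TNF expression in human macrophages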 (primary screen). Cells: human THP-1 monocytic leukaemia cells, TNF dual-luciferase reporter clone, PMA-differentiated to macrophage-like cells. Knock-down reagent: siRNA pool against human genes, 50 nM. Timing: LPS for 4 h, given about 3 days after siRNA transfection. Challenge: bacterial LPS (TLR4 ligand), 10 ng/ml. Measurement: 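TNF firefly reporter luminescence divided by renilla, normalised to the plate median, then turned into a robust z-score for each replicate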. Reading the numbers: TNF reporter robust z-score: higher = stronger TNF reporter response to LPS. Active means: 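a well is active when its z-score exceeds 2.8 or falls below -1.5; control wells carry no call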.
Here is an unselected part of about 18,000 reagents tested. About 2,900 of all reagents (16%) count as active. 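Calls are made per well; low scores hint the gene aids the LPS response, high scores that it dampens it.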 Entries without a mark were called inactive. Repeated entries: four replicate wells of each siRNA pool.

gene	TNF reporter robust z-score
BMPR2	1.59
BMPR2	1.31
BMPR2	-0.79
BMPR2	-0.33
CD99	-0.75
CD99	0.08
CD99	-1.31
CD99	-0.13
ZNF25	0.22
ZNF25	0.39
ZNF25	0.63
ZNF25	0.01
PBX3	-0.63
PBX3	-0.11
PBX3	-0.46
PBX3	0.42
LRRC10	-0.06
LRRC10	0.42
LRRC10	0.43
LRRC10	0.05
CALCR	-1.59 (active)
CALCR	-0.11
CALCR	-1.26
CALCR	-0.14
ZNF580	0.95
ZNF580	0.59
ZNF580	0.03
ZNF580	1.23
DUOXA2	2.68
DUOXA2	-0.01
DUOXA2	0.03
DUOXA2	1.17
IL1A	-0.62
IL1A	-0.85
IL1A	-0.83
IL1A	-0.38
MYCN	0.17
MYCN	0
MYCN	-0.23
MYCN	-0.21
NOC4L	-1.01
NOC4L	-0.72
NOC4L	-0.62
NOC4L	-1.23
PBX4	-1.33
PBX4	-0.81
PBX4	-0.9
PBX4	-0.95
PAK6	-1.42
PAK6	-1.51 (active)
PAK6	0.55
PAK6	0.84
GINS3	-0.62
GINS3	0.41
GINS3	-0.02
GINS3	-0.61
MRAP2	0.97
MRAP2	2.3
MRAP2	1.41
MRAP2	1.57
MARK2	0.14
MARK2	-0.3
MARK2	0.59
MARK2	1.28
TTK	-0.73
TTK	-0.61
TTK	-0.19
TTK	-0.88
POPDC1	-0.03
POPDC1	0.41
POPDC1	-0.96
POPDC1	0.55
TBC1D26	-0.05
TBC1D26	1.86
TBC1D26	0.6
TBC1D26	0.56

9 entries already listed, arranged by “TNF reporter robust z-score”, descending.
gene	TNF reporter robust z-score
ZNF580	1.23
ZNF580	0.95
ZNF580	0.59
LRRC10	0.05
ZNF580	0.03
CALCR	-0.11
CALCR	-0.14
CALCR	-1.26
CALCR	-1.59 (active)
